For at least one compound, name, drawing or mass did not settle the structure.
Tested on: Scirpus juncoides
Test: Test Example 1: growth-inhibitory effect on weeds (pot test)
Assay type: in vivo
Conditions: Table 2; scale 0 (no inhibition) to 100 (complete death); Day 15 after sowing

Row | SMILES | Growth-inhibitory rate for Scirpus juncoides
1 | CS(=O)(=O)c1ccc(C(=O)C2C(=O)CCCC2=O)c(Cl)c1COCC1CCCO1 (centres unmarked) [compound 1, Tefuryltrione] | 80
2 | CS(=O)(=O)c1ccc(C(=O)C2=C(Sc3ccccc3)C3CCC(C3)C2=O)c(Cl)c1 (centres unmarked) [compound 2, Benzobicyclon] | 85

Source: patent US10506759B2, “Rice seed treatment agent” (KUMIAI CHEMICAL INDUSTRY CO., LTD., priority 2015, dated 2019)
